Residue numbers refer to the chain shown, from its start. No constants are given. Whether binding was seen depends on the method and setting. A result given as binding can be weak or reduced; the word gives no strength. Where a sequence is shown, tags or fusion partners need not be part of it.
How the values were obtained:
Assay in all cases: two-hybrid; bacterial two-hybrid in E. coli BTH101; signal quantified by β-galactosidase assay (ONPG, ΔOD420/min/ml) of cultures grown 16 h at 30°C with IPTG
[1] = biological target: T1, ϕC31 IntI420V fused to T18 (Streptomyces phage ϕC31) (UniProt Q9T221)
T1 sequence: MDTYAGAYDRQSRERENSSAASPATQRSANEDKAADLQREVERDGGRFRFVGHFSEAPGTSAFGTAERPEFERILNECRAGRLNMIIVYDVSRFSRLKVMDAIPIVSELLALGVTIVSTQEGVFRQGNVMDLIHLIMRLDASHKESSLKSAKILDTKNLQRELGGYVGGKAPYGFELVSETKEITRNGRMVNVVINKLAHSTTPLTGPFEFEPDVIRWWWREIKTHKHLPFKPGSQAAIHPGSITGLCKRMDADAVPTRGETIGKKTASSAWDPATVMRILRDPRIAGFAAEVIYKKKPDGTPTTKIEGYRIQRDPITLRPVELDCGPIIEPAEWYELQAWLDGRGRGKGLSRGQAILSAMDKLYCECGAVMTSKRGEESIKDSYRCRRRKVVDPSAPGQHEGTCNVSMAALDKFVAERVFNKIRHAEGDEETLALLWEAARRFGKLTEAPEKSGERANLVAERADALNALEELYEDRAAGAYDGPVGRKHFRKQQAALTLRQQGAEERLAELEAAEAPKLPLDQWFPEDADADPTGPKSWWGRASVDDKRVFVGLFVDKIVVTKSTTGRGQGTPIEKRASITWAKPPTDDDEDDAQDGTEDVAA

[2] = biological target: T2, ϕC31 IntS454G fused to T18 (Streptomyces phage ϕC31) (UniProt Q9T221)
T2 sequence: T1 sequence with V420I, S454G

[3] = biological target: T3, ϕC31 IntT564A fused to T18 (Streptomyces phage ϕC31) (UniProt Q9T221)
T3 sequence: T1 sequence with V420I, T564A

[4] = biological target: T4, wild-type ϕC31 integrase fused to T18 (Int-T18 fusion, pEY111) (Streptomyces phage ϕC31) (UniProt Q9T221)
T4 sequence: T1 sequence with V420I

Measured: binding

T25-ϕC31 gp3 (wild type) fusion protein (Streptomyces phage ϕC31)
binds: [1] | [2] | [3] | [4]

From paper PMC5814800
